The test system of the assay is L1210 leukemia ip in BDF1 mice, survival T/C. Put plainly: NCI In Vivo Anticancer Drug Screen. Data for tumor model L1210 Leukemia (intraperitoneal) in B6D2F1 (BDF1) mice. Conditions: T/C endpoint: mean survival time, higher T/C = longer survival.
The mark [1] stands for this setting: dose: 75.0 mg/kg/injection, schedule: Q01DX001 (ip), vehicle: other.
The mark [2] stands for this setting: dose: 100.0 mg/kg/injection, schedule: Q04DX003 (ip), vehicle: Klucel (hydroxypropylcellulose) (HPC).
Where [3] appears, read: dose: 200.0 mg/kg/injection, schedule: Q04DX003 (ip), vehicle: Klucel (hydroxypropylcellulose) (HPC).
Setting [4] is: dose: 400.0 mg/kg/injection, schedule: Q04DX003 (ip), vehicle: Klucel (hydroxypropylcellulose) (HPC).
Setting [5] is: dose: 6.25 mg/kg/injection, schedule: Q04DX003 (ip), vehicle: Klucel (hydroxypropylcellulose) (HPC).
[6] abbreviates: dose: 12.5 mg/kg/injection, schedule: Q04DX003 (ip), vehicle: Klucel (hydroxypropylcellulose) (HPC).
The mark [7] stands for this setting: dose: 25.0 mg/kg/injection, schedule: Q04DX003 (ip), vehicle: Klucel (hydroxypropylcellulose) (HPC).
[8] abbreviates: dose: 50.0 mg/kg/injection, schedule: Q04DX003 (ip), vehicle: Klucel (hydroxypropylcellulose) (HPC).

Consider 16 compounds from PubChem BioAssay AID248 (DTP/NCI, 2004).

The list does not hold the whole screen: its compounds were picked by chemical class. Other doses and runs of a compound may be missing. T/C is the treated group as % of the vehicle group. Some entries give survivors of the animals treated and no T/C: the source files T/C as zero there, which appears to mark a toxic dose or a test without result, not a measured value. Some survivor counts are full or nearly so, which does not show that the dose was tolerated: the source hardly ever lists a survival T/C far under the control, and the zero likely stands for such cases as well. Counts of survivors are from the toxicity check (mostly the fifth day) where no day follows; animals may have died later. Schedules are NCI's codes, taken here to give the interval after Q, in days (D) or hours (H), and the number of doses after X. Some schedules carry Z or #; the key to these is not given. For survival time, the PubChem record calls one and a half times the control and up active, and a quarter to a half above the control has no call in these data; cut-offs in other NCI protocols can differ. Some doses were run more than once; the values are given in rising order. Some entries show no survivor count and are marked so; the dose need not have been tolerated.

Consider `CCN(CC)CCOC(=O)C(O)(c1cccc(C)c1C)C1CCCCC1` (stereo unspecified), for which, under setting [1], the T/C is 100 % of control.

`O=[N+]([O-])c1cccc(Oc2cc(Br)c([N+](=O)[O-])cc2[N+](=O)[O-])c1`: the T/C (dose: 75.0 mg/kg/injection, schedule: Q01DX001 (ip), vehicle: acetone) is 96 % of control and the T/C (dose: 150.0 mg/kg/injection, schedule: Q01DX001 (ip), vehicle: acetone) is 100 % of control. Also, the survivor count (dose: 300.0 mg/kg/injection, schedule: Q01DX001 (ip), vehicle: acetone) is on record as 0 of 6.

As for `O=[N+]([O-])c1cc([N+](=O)[O-])c(Nc2c([N+](=O)[O-])cc([N+](=O)[O-])cc2[N+](=O)[O-])c([N+](=O)[O-])c1`, the T/C under setting [2] is 97 % of control [survivor count not shown] and the T/C under setting [3] was 100 % of control [survivor count not shown].

`NC(=O)N/C(N)=N/P(=O)(Oc1ccccc1)Oc1ccccc1`: the T/C under setting [2] is 94 % of control, the T/C under setting [3] was 102 % of control and the T/C under setting [4] is 96 % of control.

`O=[N+]([O-])c1ccc(-c2ccccc2[N+](=O)[O-])c([N+](=O)[O-])c1`: the T/C reads like this: (dose: 100.0 mg/kg/injection, schedule: Q01DX001 (ip), vehicle: carboxymethylcellulose (CMC)) 91 % of control; (dose: 200.0 mg/kg/injection, schedule: Q01DX001 (ip), vehicle: carboxymethylcellulose (CMC)) 91 % of control; (dose: 400.0 mg/kg/injection, schedule: Q01DX001 (ip), vehicle: carboxymethylcellulose (CMC)) 101 % of control.

For `O=P(Cl)(NC12CC3CC(CC(C3)C1)C2)Oc1ccccc1` (stereo unspecified), the T/C runs as follows: (dose: 6.0 mg/kg/injection, schedule: Q01DX009 (ip), vehicle: Klucel (hydroxypropylcellulose) (HPC)) 101 % of control; (dose: 12.0 mg/kg/injection, schedule: Q01DX009 (ip), vehicle: Klucel (hydroxypropylcellulose) (HPC)) 106 % of control; (dose: 25.0 mg/kg/injection, schedule: Q01DX009 (ip), vehicle: Klucel (hydroxypropylcellulose) (HPC)) 101 % of control. The survivor count reads like this: (dose: 75.0 mg/kg/injection, schedule: Q01DX009 (ip), vehicle: Klucel (hydroxypropylcellulose) (HPC)) 3 of 6; (dose: 150.0 mg/kg/injection, schedule: Q01DX009 (ip), vehicle: Klucel (hydroxypropylcellulose) (HPC)) 1 of 6; (dose: 300.0 mg/kg/injection, schedule: Q01DX009 (ip), vehicle: Klucel (hydroxypropylcellulose) (HPC)) 0 of 6.

With `O=[N+]([O-])c1ccc(N/N=C/C=C\C=N\Nc2ccc([N+](=O)[O-])cc2[N+](=O)[O-])c([N+](=O)[O-])c1`, the T/C is 86 % of control (dose: 50.0 mg/kg/injection, schedule: Q04DX002 (ip), vehicle: Klucel (hydroxypropylcellulose) (HPC)); 108 % of control (dose: 100.0 mg/kg/injection, schedule: Q04DX002 (ip), vehicle: Klucel (hydroxypropylcellulose) (HPC)); 89 % of control (dose: 200.0 mg/kg/injection, schedule: Q04DX002 (ip), vehicle: Klucel (hydroxypropylcellulose) (HPC)).

`CC1([N+](=O)[O-])COP(=O)(N(CCCl)CCCl)OC1` (stereo unspecified): under “dose: 100.0 mg/kg/injection, schedule: Q01DX Z (ip), vehicle: carboxymethylcellulose (CMC)”, the T/C was 109 % of control. Moreover, the survivor count reads like this: (dose: 200.0 mg/kg/injection, schedule: Q01DX Z (ip), vehicle: carboxymethylcellulose (CMC)) 6 of 6; (dose: 400.0 mg/kg/injection, schedule: Q01DX Z (ip), vehicle: carboxymethylcellulose (CMC)) 0 of 6; (dose: 600.0 mg/kg/injection, schedule: Q01DX Z (ip), vehicle: carboxymethylcellulose (CMC)) 2 of 6.

As to `CC1CC([N+](=O)[O-])C(C2C([N+](=O)[O-])CC(C)CC2[N+](=O)[O-])C([N+](=O)[O-])C1` (stereo unspecified), the T/C is 102 % of control [survivor count not shown] (dose: 100.0 mg/kg/injection, schedule: Q01DX001 (ip), vehicle: saline); 101 % of control [survivor count not shown] (dose: 200.0 mg/kg/injection, schedule: Q01DX001 (ip), vehicle: saline); 98 % of control [survivor count not shown] (dose: 400.0 mg/kg/injection, schedule: Q01DX001 (ip), vehicle: saline).

For the compound `CCOP(=O)(Nc1ccccn1)OCC`, the T/C by setting is: (dose: 100.0 mg/kg/injection, schedule: Q04DX003 (ip), vehicle: saline with Tween-80) 91 % of control; (dose: 200.0 mg/kg/injection, schedule: Q04DX003 (ip), vehicle: saline with Tween-80) 94 % of control; (dose: 400.0 mg/kg/injection, schedule: Q04DX003 (ip), vehicle: saline with Tween-80) 88 % of control.

As to `O=C1C(F)=C(NCCCl)C(=O)C(F)=C1NCCCl`, the T/C is, setting by setting: (dose: 3.12 mg/kg/injection, schedule: Q04DX003 (ip), vehicle: Klucel (hydroxypropylcellulose) (HPC)) 101 % of control; under setting [5], 95 % of control; under setting [6], 95 % of control; under setting [7], 95 % of control; under setting [8], 95 % of control; under setting [2], 95 % of control. For the same compound, the T/C was 101 % of control (dose: 150.0 mg/kg/injection, schedule: Q04DX003 (ip), vehicle: Klucel (hydroxypropylcellulose) (HPC)); 95 % of control (dose: 225.0 mg/kg/injection, schedule: Q04DX003 (ip), vehicle: Klucel (hydroxypropylcellulose) (HPC)); 100 % of control (dose: 335.0 mg/kg/injection, schedule: Q04DX003 (ip), vehicle: Klucel (hydroxypropylcellulose) (HPC)).

With `CCCCN(CCCC)P1OCCO1`, the T/C (dose: 25.0 mg/kg/injection, schedule: Q04DX003 (ip), vehicle: saline) is 98 % of control; the T/C (dose: 50.0 mg/kg/injection, schedule: Q04DX003 (ip), vehicle: saline) is 103 % of control; the T/C (dose: 100.0 mg/kg/injection, schedule: Q04DX003 (ip), vehicle: saline) is 98 and 100 % of control. Moreover, the survivor count is, setting by setting: (dose: 200.0 mg/kg/injection, schedule: Q04DX003 (ip), vehicle: saline) 0 of 6; (dose: 400.0 mg/kg/injection, schedule: Q04DX003 (ip), vehicle: saline) 0 of 6.

In the case of `NC(=O)c1cc(Cl)ccc1N=NN(CCCl)CCCl`, the T/C runs as follows: (dose: 75.0 mg/kg/injection, schedule: Q04DX003 (ip), vehicle: saline with Tween-80) 101 % of control; (dose: 150.0 mg/kg/injection, schedule: Q04DX003 (ip), vehicle: saline with Tween-80) 101 % of control; (dose: 300.0 mg/kg/injection, schedule: Q04DX003 (ip), vehicle: saline with Tween-80) 105 % of control.

Consider `O=[N+]([O-])c1cc([N+](=O)[O-])c(CCN2CCCCC2)c([N+](=O)[O-])c1`, for which the T/C runs as follows: (dose: 25.0 mg/kg/injection, schedule: Q04DX003 (ip), vehicle: other) 95 % of control [survivor count not shown]; (dose: 50.0 mg/kg/injection, schedule: Q04DX003 (ip), vehicle: other) 94 % of control [survivor count not shown]; (dose: 100.0 mg/kg/injection, schedule: Q01DX001 (ip), vehicle: other) 109 % of control [survivor count not shown]; (dose: 100.0 mg/kg/injection, schedule: Q04DX003 (ip), vehicle: other) 95 % of control [survivor count not shown].

In the case of `C=CCCC[P+](C)(c1ccccc1)c1ccccc1.F[P-](F)(F)(F)(F)F`, the T/C by setting is: under setting [5], 95 % of control; under setting [6], 96 % of control. Further, the survivor count runs as follows: under setting [7], 0 of 6; under setting [8], 0 of 6; under setting [2], 0 of 6; under setting [3], 0 of 6; under setting [4], 0 of 6.

For the compound `CCN(CC)CCOC(=O)C(O)(c1cccc(C)c1)C1CCCCC1` (stereo unspecified), the T/C under setting [1] is 102 % of control and the T/C (dose: 150.0 mg/kg/injection, schedule: Q01DX001 (ip), vehicle: other) was 96 % of control.
